Values from PubChem BioAssay AID1224826 (NIAID, 2016)

Test: 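Regulators of Tlr4 signalling leading to Tnf-alpha expression in macrophages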 (primary screen)
Cells: RAW264.7 G9 macrophages from mouse bearing reporters for p65 (GFP) and the Tnf promoter (mCherry)
Reagents: siRNA pool against mouse genes, 100 nM
Time to read-out: 16 h of LPS stimulation, after 2 days of siRNA transfection
Treatment: bacterial lipopolysaccharide (Salmonella minnesota R595), 10 ng/ml
Measurement: 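Imaged Tnf reporter mCherry in nuclei, minus background, normalised per plate to the median and expressed as robust z-scores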
Direction: Tnf reporter robust z-score: higher = stronger Tnf promoter reporter signal after LPS
Rule for the call: 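Called active when robust z-score is at most -1.3, matching the median of the Tlr4 knock-down control, or over 3; control wells and wells with under 50 cells never active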
Calls: active = Tnf reporter clearly lowered or raised; inactive = no clear change in Tnf reporter
Shown is a random part of about 17,000 reagents tested. About 1,110 of all reagents (6.6%) were called active. 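Active means lowered or raised reporter signal; replicate intensities are raw and not normalised per plate.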 Unmarked entries are inactive. Not all columns of the deposit are shown.

After knock-down of Camkv [SID315479275], the screen gave Tnf reporter robust z-score 2.72; fewer than 50 cells in well enough cells in well.
For Or2b6 [SID315478172] the deposit lists Tnf reporter robust z-score 0.19; fewer than 50 cells in well enough cells in well.
Depletion of Tmem186 [SID315472587] came out at: fewer than 50 cells in well fewer than 50 cells per well; well left out of calls.
Against Smad6 [SID315467804] the deposit lists Tnf reporter robust z-score -1.93 (active); fewer than 50 cells in well enough cells in well.

Quoted from the entries so far (2 entries):
Camkv [SID315479275]: Tnf reporter robust z-score = 2.72; fewer than 50 cells in well = enough cells in well
Or2b6 [SID315478172]: Tnf reporter robust z-score = 0.19; fewer than 50 cells in well = enough cells in well

The list goes on.
Against Plekhh3 [SID315478087], the entry reads Tnf reporter robust z-score 0.46; fewer than 50 cells in well enough cells in well.
After knock-down of Mc2r [SID315467854] the results were Tnf reporter robust z-score 0.29; fewer than 50 cells in well enough cells in well.
Sfrp4 [SID315469196] showed Tnf reporter robust z-score -0.68; fewer than 50 cells in well enough cells in well.
Khdc1a [SID315481735] gave Tnf reporter robust z-score -0.42; fewer than 50 cells in well enough cells in well.
Csde1 [SID315478726] showed Tnf reporter robust z-score 0.52; fewer than 50 cells in well enough cells in well.
After knock-down of A530095I07Rik [SID315477638], the record shows Tnf reporter robust z-score 0.44; fewer than 50 cells in well enough cells in well.
Depletion of Hnrnpul1 [SID315479036] gave: Tnf reporter robust z-score -0.52; fewer than 50 cells in well enough cells in well.
Knock-down of Anp32b [SID315473133] came out at: Tnf reporter robust z-score 3.26 (active); fewer than 50 cells in well enough cells in well.
Knock-down of Bbc3 [SID315477234] resulted in: Tnf reporter robust z-score 1.18; fewer than 50 cells in well enough cells in well.
With knock-down of Kcnh2 [SID315467575], the record shows Tnf reporter robust z-score 0.46; fewer than 50 cells in well enough cells in well.
